These results are taken from patent publication US12448389B2, “BRM targeting compounds and associated methods of use” (Prelude Therapeutics Incorporated, priority 2020, dated 2025).

Sequences of proteins named here, by UniProt entry; tags and fusion partners are left off.
UniProt P51531, whole entry: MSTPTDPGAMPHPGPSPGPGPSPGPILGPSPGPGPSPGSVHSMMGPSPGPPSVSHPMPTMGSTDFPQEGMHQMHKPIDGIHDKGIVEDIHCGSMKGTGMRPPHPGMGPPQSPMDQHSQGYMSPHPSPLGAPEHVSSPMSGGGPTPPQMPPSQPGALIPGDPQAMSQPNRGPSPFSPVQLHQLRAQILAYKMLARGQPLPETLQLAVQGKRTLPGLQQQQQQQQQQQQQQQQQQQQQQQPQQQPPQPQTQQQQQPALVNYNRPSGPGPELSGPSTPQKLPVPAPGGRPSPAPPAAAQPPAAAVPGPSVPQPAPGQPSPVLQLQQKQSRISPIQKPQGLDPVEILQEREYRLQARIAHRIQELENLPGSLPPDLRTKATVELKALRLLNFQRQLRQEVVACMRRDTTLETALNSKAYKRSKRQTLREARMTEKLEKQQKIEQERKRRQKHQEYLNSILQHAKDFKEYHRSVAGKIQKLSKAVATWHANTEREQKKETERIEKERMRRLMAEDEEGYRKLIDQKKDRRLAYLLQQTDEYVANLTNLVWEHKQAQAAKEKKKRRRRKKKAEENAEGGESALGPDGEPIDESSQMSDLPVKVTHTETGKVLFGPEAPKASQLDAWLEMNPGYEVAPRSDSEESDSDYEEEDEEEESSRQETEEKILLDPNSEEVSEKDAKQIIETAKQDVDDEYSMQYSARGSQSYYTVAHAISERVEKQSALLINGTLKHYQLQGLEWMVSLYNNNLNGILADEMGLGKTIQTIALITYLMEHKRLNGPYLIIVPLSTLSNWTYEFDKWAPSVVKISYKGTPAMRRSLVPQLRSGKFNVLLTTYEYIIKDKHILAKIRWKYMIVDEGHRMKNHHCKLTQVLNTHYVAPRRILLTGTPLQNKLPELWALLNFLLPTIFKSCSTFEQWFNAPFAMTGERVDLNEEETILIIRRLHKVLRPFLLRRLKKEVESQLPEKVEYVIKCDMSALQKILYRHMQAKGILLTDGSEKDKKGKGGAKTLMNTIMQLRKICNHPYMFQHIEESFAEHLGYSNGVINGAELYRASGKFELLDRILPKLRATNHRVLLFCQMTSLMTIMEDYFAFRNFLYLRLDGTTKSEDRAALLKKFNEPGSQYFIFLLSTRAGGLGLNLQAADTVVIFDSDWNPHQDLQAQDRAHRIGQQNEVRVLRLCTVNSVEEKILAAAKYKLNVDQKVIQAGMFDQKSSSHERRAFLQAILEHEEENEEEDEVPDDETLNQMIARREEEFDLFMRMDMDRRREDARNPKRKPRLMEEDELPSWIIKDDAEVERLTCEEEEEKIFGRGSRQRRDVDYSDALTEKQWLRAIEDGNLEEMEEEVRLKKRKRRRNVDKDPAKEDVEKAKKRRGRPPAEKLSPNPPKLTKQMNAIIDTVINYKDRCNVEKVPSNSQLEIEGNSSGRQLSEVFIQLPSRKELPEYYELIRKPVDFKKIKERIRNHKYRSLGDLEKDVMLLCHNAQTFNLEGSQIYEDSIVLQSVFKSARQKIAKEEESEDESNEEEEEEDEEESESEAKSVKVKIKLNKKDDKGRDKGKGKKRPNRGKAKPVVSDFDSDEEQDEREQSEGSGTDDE
UniProt P51532, whole entry: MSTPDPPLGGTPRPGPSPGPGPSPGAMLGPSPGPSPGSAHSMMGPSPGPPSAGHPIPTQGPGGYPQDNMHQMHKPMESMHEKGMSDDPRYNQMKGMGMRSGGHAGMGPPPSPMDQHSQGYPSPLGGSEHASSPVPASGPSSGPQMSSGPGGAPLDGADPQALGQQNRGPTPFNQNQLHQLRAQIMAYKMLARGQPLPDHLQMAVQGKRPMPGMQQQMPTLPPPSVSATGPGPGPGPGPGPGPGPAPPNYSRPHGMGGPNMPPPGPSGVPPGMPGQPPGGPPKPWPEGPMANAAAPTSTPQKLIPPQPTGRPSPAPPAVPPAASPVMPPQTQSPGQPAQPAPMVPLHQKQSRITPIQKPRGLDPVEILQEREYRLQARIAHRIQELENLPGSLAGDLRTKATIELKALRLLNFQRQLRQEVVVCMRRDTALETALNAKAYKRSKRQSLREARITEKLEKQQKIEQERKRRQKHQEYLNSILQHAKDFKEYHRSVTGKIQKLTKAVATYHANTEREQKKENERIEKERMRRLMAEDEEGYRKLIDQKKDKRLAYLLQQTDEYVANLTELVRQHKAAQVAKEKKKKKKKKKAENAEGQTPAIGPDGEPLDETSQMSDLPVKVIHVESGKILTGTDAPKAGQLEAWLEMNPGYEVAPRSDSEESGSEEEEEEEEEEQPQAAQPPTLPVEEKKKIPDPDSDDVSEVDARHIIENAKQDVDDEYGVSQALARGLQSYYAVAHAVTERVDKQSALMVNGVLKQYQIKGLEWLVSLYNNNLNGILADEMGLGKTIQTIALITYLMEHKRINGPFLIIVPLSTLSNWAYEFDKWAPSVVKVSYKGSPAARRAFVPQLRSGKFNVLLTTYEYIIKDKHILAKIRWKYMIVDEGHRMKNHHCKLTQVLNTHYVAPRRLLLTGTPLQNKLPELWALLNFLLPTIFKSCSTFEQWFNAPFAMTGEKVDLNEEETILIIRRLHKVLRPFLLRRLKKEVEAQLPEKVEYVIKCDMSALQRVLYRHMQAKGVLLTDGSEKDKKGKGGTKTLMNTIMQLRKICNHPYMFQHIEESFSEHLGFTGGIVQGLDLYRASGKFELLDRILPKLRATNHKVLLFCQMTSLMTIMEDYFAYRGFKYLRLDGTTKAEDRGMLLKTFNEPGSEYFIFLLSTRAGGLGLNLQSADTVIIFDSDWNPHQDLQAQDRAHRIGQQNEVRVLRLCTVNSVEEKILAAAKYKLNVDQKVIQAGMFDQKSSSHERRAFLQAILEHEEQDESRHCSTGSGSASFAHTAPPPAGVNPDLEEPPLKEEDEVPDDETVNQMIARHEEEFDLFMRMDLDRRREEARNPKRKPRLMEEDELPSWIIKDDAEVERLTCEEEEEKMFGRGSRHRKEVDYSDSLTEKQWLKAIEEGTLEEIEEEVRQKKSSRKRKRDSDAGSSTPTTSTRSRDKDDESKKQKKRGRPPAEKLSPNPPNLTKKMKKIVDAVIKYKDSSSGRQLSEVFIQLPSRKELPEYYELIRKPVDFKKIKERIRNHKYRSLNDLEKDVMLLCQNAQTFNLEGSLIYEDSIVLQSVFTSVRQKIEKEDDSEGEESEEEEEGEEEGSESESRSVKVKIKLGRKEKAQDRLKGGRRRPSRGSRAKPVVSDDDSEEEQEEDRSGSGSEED

The DC50 is the concentration at which degradation of the target reaches its halfway point.

Values joined by “and” are separate entries in the source; they are usually repeats but may differ in a detail not shown here. Identical values can stand only once. Structures were worked out from names or drawings and are uncertain.

In test [1] the target is SMARCA2-HiBiT (Homo sapiens, UniProt P51531). Put plainly: SMARCA2 HiBiT degradation assay in HeLa cells. Particulars: read-out: HeLa_HiBit-SM2 DC50, 18 hours incubation. The method, then:
(§1) HiBiT peptide knock-in of SMARCA2 in LgBiT expressing HEK293T cells was performed by CRISPR-mediated tagging system as described Promega. The homozygous HiBiT knock-in on c-terminus SMARCA2 was confirmed by sanger sequence. SMARCA2-HiBiT knock-in Hela monoclonal cell (CS302366) and SMARCA4-HiBiT knock-in Hela monoclonal cell (CS3023226) were purchased from Promega. The heterozygous HiBiT-knock-in was confirmed by sanger sequence in both SMARCA2-HiBiT and SMARCA4-HiBiT monoclonal cells.
(§2) SMARCA2 HiBiT and SMARCA4 HiBiT Degradation Assay in HeLa Cells
(§3) Dispense 10 ul aliquot of prepared Hela-SMARCA2-HiBiT or Hela-SMARCA4-HiBiT cells (1:1 ratio of cells:Trypan Blue (#1450013, Bio-Rad)) onto cell counting slide (#145-0011, Bio-Rad) and obtain cell density and cell viability using cell counter (TC20, Bio-Rad). Remove appropriate volume of resuspended cells from culture flask to accommodate 2500 cells/well @20 μL/well. Transfer Hela-HiBiT cells to 50 mL conical (#430290, Corning). Spin down at 1000 rpm for 5 min using tabletop centrifuge (SPINCHRON 15, Beckman). […] Read plates on microplate reader (Envision 2105, PerkinElmer) using 384 well Ultra-Sensitive luminescence mode. […]

The target in test [2] is SMARCA4-HiBiT (Homo sapiens, UniProt P51532). Put plainly: SMARCA4 HiBiT degradation assay in HeLa cells. The following applies: read-out: HeLa-HiBit-SM4 DC50, 18 hours incubation. The method, then: as §1, §2, §3
(With HiBiT, luminescence reflects the tagged protein that the partner subunit can reach.)

Take `CC12CN(CC3CCN(c4ccc5c(c4)C(=O)N(C4CCC(=O)NC4=O)C5=O)CC3)CC1C2CN1CCN2c3cc(-c4ccccc4O)nnc3NC[C@H]2C1` (some centres unmarked): the DC50 is below 10 nM in test [1]; 10 to 100 nM and < 10 nM in test [2].
